Experimental findings from publication doi:10.1101/727578 are described below.

Amino acid sequences for entries named in this document (tags omitted). A change or cut given only in a name is not applied to a line headed by its entry.
UniProt Q01968, whole entry: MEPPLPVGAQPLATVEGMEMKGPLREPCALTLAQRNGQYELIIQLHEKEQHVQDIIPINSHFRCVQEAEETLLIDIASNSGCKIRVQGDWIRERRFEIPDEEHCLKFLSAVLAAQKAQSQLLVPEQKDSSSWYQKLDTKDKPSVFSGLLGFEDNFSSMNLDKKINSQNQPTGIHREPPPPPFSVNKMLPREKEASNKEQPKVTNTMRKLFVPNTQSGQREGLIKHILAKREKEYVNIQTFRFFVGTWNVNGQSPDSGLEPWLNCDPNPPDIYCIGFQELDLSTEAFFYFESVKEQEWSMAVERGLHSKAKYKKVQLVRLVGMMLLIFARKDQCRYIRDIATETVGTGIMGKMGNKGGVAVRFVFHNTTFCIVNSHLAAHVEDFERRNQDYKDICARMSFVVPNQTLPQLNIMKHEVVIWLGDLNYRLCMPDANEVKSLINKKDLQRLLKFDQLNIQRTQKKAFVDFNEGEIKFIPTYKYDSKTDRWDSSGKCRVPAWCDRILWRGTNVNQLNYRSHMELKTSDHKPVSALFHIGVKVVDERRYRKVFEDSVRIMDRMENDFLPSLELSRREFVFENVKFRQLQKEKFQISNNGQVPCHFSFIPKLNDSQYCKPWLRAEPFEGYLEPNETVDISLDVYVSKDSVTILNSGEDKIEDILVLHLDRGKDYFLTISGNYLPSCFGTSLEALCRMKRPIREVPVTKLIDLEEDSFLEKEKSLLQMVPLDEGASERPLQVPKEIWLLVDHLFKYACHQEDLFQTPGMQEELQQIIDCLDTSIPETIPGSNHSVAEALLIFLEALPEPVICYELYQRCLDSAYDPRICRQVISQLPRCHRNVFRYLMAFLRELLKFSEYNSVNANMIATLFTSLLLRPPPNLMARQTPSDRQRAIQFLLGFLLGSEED

Assay [1] deals with T1, GFP-tagged full length WT PHETA1 (human) (UniProt Q8N4B1).
T1 sequence: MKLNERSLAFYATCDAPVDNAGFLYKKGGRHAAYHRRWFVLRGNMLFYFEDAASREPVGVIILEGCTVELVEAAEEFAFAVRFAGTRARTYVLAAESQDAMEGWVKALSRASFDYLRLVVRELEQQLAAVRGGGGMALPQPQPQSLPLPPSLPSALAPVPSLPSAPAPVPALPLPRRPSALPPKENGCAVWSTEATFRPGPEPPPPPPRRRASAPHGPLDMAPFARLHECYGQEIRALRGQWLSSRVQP
Nature of the assay: co-IP.

Assay [2] concerns the target T2, GFP-tagged full length PHETA1^R6C (human) (UniProt Q8N4B1).
T2 sequence: T1 sequence with R6C
Nature of the assay: co-IP.

Numbering of substitutions follows the chain as printed. These are yes or no findings as the source states them, for the method shown. Binding seen in cells or lysates may run through a third protein. Some entries that bind do so weakly or less than the wild type. Sequences can lack the tags named with a protein.

For the substance “full length HA-tagged OCRL1 (from UniProt Q01968 1-901) (enzyme)”, the binding result in assay [1] and in assay [2] was “binds” throughout.
